Test results from patent US5968514A (priority 1994, dated 1999).
“Also recorded” adds a separate entry of the source. Part of at least one peptide drawing is inferred or uncertain, most often the ends. Ends that are not written are not given here.

Legend:
[1] = test system: antibodies in antisera from FIV-vaccinated and FIV-infected cats; format: binding, cat
FIV = test system: FIV; parameters: species or system feline immunodeficiency virus
[2] = test system: class II MHC molecules on A20 cells; format: binding, mouse

Sequence	ELISA reactivity with sera from cell-vaccinated cat [1]	ELISA reactivity with serum from virus-vaccinated cat [1]	viral neutralization activity of eluate fraction from peptide immunoaffinity column (FIV)	competition with 125I-MMTV ORF(76-119) for binding to A20 cells (in words) [2]
ELEDRFRKLFGTTSTTGDSTVDSEDEPPKKEKRVD [FIV ORF4(21-55)]	reactive	significantly less reactivity; also recorded: reactive	–	–
GKRKRQRRRRKKKAFKRMMTELEDRFRKLF [FIV ORF4(1-30)]	reactive	high reactivity; also recorded: reactive	High viral neutralization activity	–
PNSNEGLSQQSTDPSPHNFILSNENSYPCYSLLGDVQREDSTKF [MMTV ORF(76-119) scrambled]	–	–	–	did not compete
